In PubChem BioAssay AID248 (DTP/NCI, 2004):
The list does not hold the whole screen: it is rich in T/C values a quarter to a half above the control, in often repeated tests (any T/C) and in doses without a T/C. Further doses and runs are listed elsewhere. T/C gives the treated animals as a percentage of the vehicle group. Some entries give survivors of the animals treated and no T/C: the source holds a T/C of zero for them, seemingly a mark for toxic or unscored doses. Some survivor counts are full or nearly so, which does not show that the dose was tolerated: the source hardly ever lists a survival T/C far under the control, and the zero likely stands for such cases as well. Survivors were counted at the toxicity check, usually on the fifth day, unless a day is given; later deaths do not show. Schedule codes are those of the source, read here as Q, the interval in days (D) or hours (H), X, the number of doses. Brackets with × count equal records among those shown. Some entries were tested several times; the values are given in rising order. Some schedule codes hold Z or #, which are not explained here. Some molecules as drawn cover several salts, stereoisomers or complexes of the source; a dose is that of the sample tested. For survival time, the PubChem record calls one and a half times the control and up active, and a quarter to a half above the control has no call in these data; cut-offs in other NCI protocols can differ.

System: L1210 leukemia ip in BDF1 mice, survival T/C
Experiment: NCI In Vivo Anticancer Drug Screen. Data for tumor model L1210 Leukemia (intraperitoneal) in B6D2F1 (BDF1) mice
Conditions: T/C endpoint: mean survival time, higher T/C = longer survival
[1] = dose: 400.0 mg/kg/injection, schedule: Q04DX003 (ip), vehicle: Klucel (hydroxypropylcellulose) (HPC)
[2] = dose: 100.0 mg/kg/injection, schedule: Q01DX009 (ip), vehicle: saline with Tween-80
[3] = dose: 200.0 mg/kg/injection, schedule: Q04DX003 (ip), vehicle: saline with Tween-80
[4] = dose: 400.0 mg/kg/injection, schedule: Q04DX003 (ip), vehicle: saline with Tween-80
[5] = dose: 400.0 mg/kg/injection, schedule: Q01DX009 (ip), vehicle: saline
[6] = dose: 100.0 mg/kg/injection, schedule: Q01DX009 (ip), vehicle: Klucel (hydroxypropylcellulose) (HPC)
[7] = dose: 400.0 mg/kg/injection, schedule: Q01DX009 (ip), vehicle: Klucel (hydroxypropylcellulose) (HPC)
[8] = dose: 400.0 mg/kg/injection, schedule: Q04DX003 (ip), vehicle: saline
[9] = dose: 200.0 mg/kg/injection, schedule: Q01DX009 (ip), vehicle: Klucel (hydroxypropylcellulose) (HPC)
[10] = dose: 100.0 mg/kg/injection, schedule: Q01DX001 (ip), vehicle: saline
[11] = dose: 400.0 mg/kg/injection, schedule: Q01DX001 (ip), vehicle: saline
[12] = dose: 400.0 mg/kg/injection, schedule: Q01DX001 (ip), vehicle: Klucel (hydroxypropylcellulose) (HPC)
[13] = dose: 200.0 mg/kg/injection, schedule: Q01DX001 (ip), vehicle: saline
[14] = dose: 200.0 mg/kg/injection, schedule: Q04DX003 (ip), vehicle: saline
[15] = dose: 300.0 mg/kg/injection, schedule: Q01DX001 (ip), vehicle: saline

For `Cc1ccc(S)c(C)c1`, the survivor count [1] was 0 of 6.

`O=P(N1CC1)(N1CC1)C12CC3CC(CC(C3)C1)C2` was tested, and the survivor count [2] was 6 of 6.

In the case of `CC[N+](CC)=C1SCCCS1`, the survivor count (dose: 100.0 mg/kg/injection, schedule: Q04DX003 (ip), vehicle: saline with Tween-80) is reported as 1 of 3, the survivor count [3] is reported as 0 of 3 and the survivor count [4] is reported as 0 of 3.

For `CCCCCCCCCCCCCCCCCC[N+](C)(C)Cc1cc(=O)c(O)co1`, the survivor count (dose: 25.0 mg/kg/injection, schedule: Q01DX009 (ip), vehicle: saline) was 3 of 3, the survivor count (dose: 50.0 mg/kg/injection, schedule: Q01DX009 (ip), vehicle: saline) was 2 of 3 and the survivor count (dose: 100.0 mg/kg/injection, schedule: Q01DX009 (ip), vehicle: saline) was 0 of 3 and 3 of 6. For the same compound, the survivor count (dose: 200.0 mg/kg/injection, schedule: Q01DX009 (ip), vehicle: saline) was 0 of 6 and the survivor count [5] was 0 of 6.

With `Cc1n(CCBr)c([N+](=O)[O-])c[n+]1C1N=C(c2ccccc2Cl)c2cc(Cl)ccc2NC1=O` (stereo not drawn) the survivor count [6] was 3 of 3.

For `NC1C2C(CC(=O)O)OCC=C3CN4CCC1(C(=O)C(=O)O)C4CC32` (stereo not drawn), the survivor count (dose: 8.0 mg/kg/injection, schedule: Q01DX001 (ip), vehicle: saline) was 0 of 6.

With `COc1ccc(C2C3C=CC(C3)C2C(=O)O)cc1` (stereo not drawn) the survivor count [3] was 6 of 6.

`c1ccc2nc3nc4ccccc4nc3nc2c1` was tested, and the survivor count (dose: 40.0 mg/kg/injection, schedule: Q04DX002 (ip), vehicle: gum acacia) was 1 of 3, the survivor count (dose: 75.0 mg/kg/injection, schedule: Q04DX002 (ip), vehicle: gum acacia) was 0 of 3 and the survivor count (dose: 80.0 mg/kg/injection, schedule: Q04DX002 (ip), vehicle: gum acacia) was 0 of 3. For the same compound, the survivor count (dose: 150.0 mg/kg/injection, schedule: Q04DX002 (ip), vehicle: gum acacia) was 0 of 3 and the survivor count (dose: 300.0 mg/kg/injection, schedule: Q04DX002 (ip), vehicle: gum acacia) was 0 of 3.

`O=C(Nc1ccccc1)Nc1nccs1` was tested, and the survivor count [1] was 1 of 6.

In the case of `CCOc1ccc(N2CSC(=S)N(c3ccc(OCC)cc3)C2)cc1`, the survivor count [7] is reported as 4 of 6.

`c1ccc(CCN2CCOCC2)nc1` was tested, and the survivor count [8] was 5 of 6.

`Nc1nc(-c2ccccc2)cs1` was tested, and the survivor count [6] was 0 of 6, the survivor count [9] was 0 of 6 and the survivor count [7] was 0 of 6.

For `CC(C)NC(C)Cc1ccccc1` (stereo not drawn), the survivor count [10] was 3 of 6.

In the case of `Nc1cccc(CC(=O)c2ccccc2)n1`, the survivor count [10] is reported as 3 of 6 and the survivor count [11] is reported as 1 of 6.

For `Cc1cc(C)c(C)c(NC(=O)NCCCl)c1C`, the survivor count [12] was 3 of 6.

With `CC(=O)c1ccc(NCC2N=C(N)N=C(N)N2c2ccccc2)cc1` (stereo not drawn) the survivor count [7] was 0 of 6 and the survivor count [1] was 1 of 6.

In the case of `NC(=S)NN=C1CCSCC1`, the survivor count (dose: 65.0 mg/kg/injection, schedule: Q01DX Z (ip), vehicle: methylcellulose (MC)) is reported as 0 of 7 and the survivor count (dose: 108.0 mg/kg/injection, schedule: Q01DX Z (ip), vehicle: methylcellulose (MC)) is reported as 0 of 7.

For `Cc1cccc(C)c1NC(N)=NC(C)C`, the T/C (dose: 50.0 mg/kg/injection, schedule: Q01DX001 (ip), vehicle: saline) was 127 % of control, the T/C [10] was 146 % of control and the T/C [13] was 138 % of control.

`CC(=O)OI(OC(C)=O)c1ccccc1` was tested, and the survivor count [7] was 1 of 6.

In the case of `C1CCN(CCC2CCNCC2)C1`, the survivor count [14] is reported as 3 of 6 and the survivor count [8] is reported as 0 of 6.

`Cc1cc(Oc2ccc(Cl)cc2NC(=O)Nc2ccc(Cl)c(Cl)c2)c(S(=O)(=O)O)cc1Cl` was tested, and the survivor count [14] was 2 of 6 and the survivor count [8] was 0 of 6.

For `O=C(O)C(Oc1ccc(Cl)cc1Cl)C(Oc1ccc(Cl)cc1Cl)C(=O)O` (stereo not drawn), the T/C (dose: 100.0 mg/kg/injection, schedule: Q04DX002 (ip), vehicle: Klucel (hydroxypropylcellulose) (HPC)) was 144 % of control and the T/C (dose: 200.0 mg/kg/injection, schedule: Q04DX002 (ip), vehicle: Klucel (hydroxypropylcellulose) (HPC)) was 136 % of control.

With `COC(=O)C(F)C(Br)C(=O)OC` (stereo not drawn) the survivor count [2] was 5 of 10.

`Nc1ccc(C(=O)N/N=C/c2ccc(Cl)cc2Cl)cc1` was tested, and the survivor count (dose: 400.0 mg/kg/injection, schedule: Q04DX002 (ip), vehicle: Klucel (hydroxypropylcellulose) (HPC)) was 3 of 3.

With `CC1(C)C[N+](C)(Cc2ccccc2)C1` the survivor count [3] was 0 of 6 and the survivor count [4] was 0 of 6.

With `NNC(=O)Cc1ccc([N+](=O)[O-])cc1` the survivor count [11] was 3 of 6.

With `Cc1sc(Cc2ccccc2)nc1-c1ccc(N=Cc2ccc(N(CCOS(C)(=O)=O)CCOS(C)(=O)=O)cc2)cc1` the survivor count [3] was 6 of 6 and the survivor count [4] was 5 of 6.

`CCCCCCCCCCCCCCCCCC(=O)OCCOC(=O)CCCCCCCCCCCCCCCCC` was tested, and the survivor count (dose: 400.0 mg/kg/injection, schedule: Q04DX002 (ip), vehicle: other) was 3 of 3.

In the case of `COc1ccc(Cl)cc1NC(=O)c1ccc(C(=O)Nc2cc(Cl)ccc2OC)cc1`, the survivor count [6] is reported as 6 of 6.

`O=C(OCc1ccccc1)C(=O)OCc1ccccc1` was tested, and the survivor count [7] was 2 of 6.

`NC(=O)C1C(=O)c2cccc3c2C1(Br)C(Br)CCC3` (stereo not drawn) was tested, and the survivor count [13] was 0 of 4 and the survivor count [11] was 0 of 4.

`Cc1cccc(NC#N)n1` was tested, and the survivor count (dose: 200.0 mg/kg/injection, schedule: Q01DX001 (ip), vehicle: Klucel (hydroxypropylcellulose) (HPC)) was 0 of 6 and the survivor count [12] was 0 of 6.

`CO[C@]12[C@@H](COC(=O)NCCO)C3=C(C(=O)C(C)=C(N)C3=O)N1C[C@@H]1[C@H]2N1C` (stereo partly drawn) was tested, and the T/C (dose: 150.0 mg/kg/injection, schedule: Q01DX001 (ip), vehicle: saline) was 128 % of control and the T/C [15] was 130 % of control.

For `N/N=C1\CC(=O)NC(=O)N1`, the survivor count [15] was 1 of 6.

In the case of `CSC(N(C)C)=[N+](C)C`, the survivor count (dose: 240.0 mg/kg/injection, schedule: Q01DX Z (ip), vehicle: methylcellulose (MC)) is reported as 1 of 6, the survivor count (dose: 240.0 mg/kg/injection, schedule: Q01DX Z (oral), vehicle: methylcellulose (MC)) is reported as 1 of 6 and the survivor count [4] is reported as 0 of 6. For the same compound, the survivor count (dose: 480.0 mg/kg/injection, schedule: Q01DX Z (ip), vehicle: methylcellulose (MC)) was 0 of 6 and the survivor count (dose: 480.0 mg/kg/injection, schedule: Q01DX Z (oral), vehicle: methylcellulose (MC)) was 0 of 6.

For `COc1ccc(/C=N\O)cc1OC`, the survivor count (dose: 400.0 mg/kg/injection, schedule: Q01DX009 (ip), vehicle: saline with Tween-80) was 2 of 6.

In the case of `O=C(c1ccccc1)N1CCCCC1`, the survivor count [5] is reported as 3 of 6 and the survivor count [8] is reported as 3 of 6.

For `CC1(C)C=Cc2ccccc21`, the survivor count [4] was 4 of 6.

In the case of `Cc1cs[n+](C)c1`, the survivor count [11] is reported as 1 of 6.

With `COc1cc([N+](=O)[O-])cc(C=O)c1O` the survivor count (dose: 200.0 mg/kg/injection, schedule: Q04DX003 (ip), vehicle: Klucel (hydroxypropylcellulose) (HPC)) was 2 of 6 and the survivor count [1] was 3 of 6.

For `Nc1ccc(SCCC(=O)O)cc1`, the survivor count (dose: 150.0 mg/kg/injection, schedule: Q01DX001 (ip), vehicle: other) was 3 of 6 and the survivor count (dose: 300.0 mg/kg/injection, schedule: Q01DX001 (ip), vehicle: other) was 0 of 6 and 2 of 6.

For `COC(=O)Cc1c[nH]c(=O)[nH]c1=O`, the survivor count (dose: 400.0 mg/kg/injection, schedule: Q01DX009 (ip), vehicle: water) was 2 of 6.

For `O=[N+]([O-])/C=C\c1ccc2c(c1)OCO2`, the survivor count [6] was 2 of 6 (2×), the survivor count [9] was 0 of 6 and the survivor count [7] was 0 of 6. For the same compound, the survivor count [1] was 2 of 6.
